Experimental data taken from paper PMC6437461, “Histone deacetylase inhibitory and cytotoxic activities of the constituents from the roots of three species of Ferula” (Iranian Journal of Basic Medical Sciences, 2019).

Columns and labels:
Type in all cases: cell-based
HeLa cells = assay: AlamarBlue cytotoxicity assay, HeLa; conditions: Homo sapiens, 48 hr treatment
Description: (§1) Cervical (HeLa), ovarian (A2780), and lung (A549) cancer cells, obtained from Biotechnology Laboratory stocks, Biotechnology Research Center (Mashhad, Iran) and colon (HCT116) obtained from National Cell Bank of Iran (NCBI), Pasteur Institute of Iran, Tehran (Iran).
(§2) In vitro cytotoxicity tests were performed using a nonfluorescent substrate, AlamarBlue® (Paisely, UK) cell viability assay as described with some modifications (16). […] After counting, the cells were seeded in 96-well microplates (1 × 10^4 cells/100 µl in each well) and cultivated for 24 hr before addition of test compounds. Triplicate plates for three wells of each concentration were seeded. […] Thereafter, 10 μl of AlamarBlue® reagent was added and incubated for another 4 hr. Then, absorbance was measured at 600 nm using an ELISA microplate reader (Epoch; USA). IC50 values were calculated by nonlinear regression analysis using GraphPad prism (Version 6.0) software.

HCT116 cells = assay: AlamarBlue cytotoxicity assay, HCT116; conditions: Homo sapiens, HCT-116, 48 hr treatment
Description: as §1, §2

A2780 cells = assay: AlamarBlue cytotoxicity assay, A2780; conditions: Homo sapiens, 48 hr treatment
Description: as §1, §2

A549 cells = assay: AlamarBlue cytotoxicity assay, A549; conditions: Homo sapiens, 48 hr treatment
Description: as §1, §2

**Q.** What does the source list for O=C(CCCCCCC(=O)Nc1ccccc1)NO [Vorinostat, reference compound]?
**A.** IC50 (HeLa cells): 2430 ± 5020 nM; IC50 (HCT116 cells): 2980 ± 1020 nM; IC50 (A2780 cells): 8.02 ± 9.8 µM; IC50 (A549 cells): 6.83 ± 6.6 µM
